Laboratory results published in the supplement of paper PMC5949888.
Most values lie at the floor of the assay. Slopes are relative: functional sequences can read slightly below zero.

The substances below were run on Saccharomyces cerevisiae PS128 hsf1 delta, HSF1(1-493) fusion (assay: growth estimate (transactivation domain function in HSF1 fusion, heat-shock survival) (a.u. (slope of normalised read count over time)); higher = stronger growth at 37°C, i.e. more transactivation activity). Details: library: random library.
With NWVILSEQRARRPRDHLLQY the growth estimate was < -0.25. In the case of VLEVSWNTWKIFGLSR, the growth estimate is reported as < -0.25. RRRSRYSLEGNLRWGCHSLG was tested, and the growth estimate was < -0.25. In the case of LSTRSQRQVTTNPAFPRSTA, the growth estimate is reported as < -0.25. In the case of YVYTS, the growth estimate is reported as < -0.25. For INASMGRRQGLCGVCQVPGE, the growth estimate was < -0.25. GMGFSLRPTLRGQPPGSPMG was tested, and the growth estimate was < -0.25. For PLRMEHSIVVWLNFFSTIPA, the growth estimate was < -0.25. With YQLKSTLVASGPHISVGVPA the growth estimate was -0.246. For QHRRKRGRWLLEVMKNH, the growth estimate was < -0.25. SLRRWGAVQPGFVNGLIE was tested, and the growth estimate was < -0.25. With SNRNTRSGLSSTPLSVSDVR the growth estimate was < -0.25. YPWDPAPMR was tested, and the growth estimate was < -0.25. In the case of HPSRSCTLA, the growth estimate is reported as < -0.25. PLLGLHWSKGLSVLWQ showed a growth estimate of -0.101. In the case of TSWVLGTAKRASGPP, the growth estimate is reported as < -0.25. With IRTQRRGPHLKSTSL the growth estimate was < -0.25. With RGEMVPAICN the growth estimate was < -0.25. HFRGPDTRTG was tested, and the growth estimate was < -0.25. For SDRGSGEIFHVRQREVCRKD, the growth estimate was < -0.25. LDP was tested, and the growth estimate was < -0.25. For RLHKIDRASRAKQ, the growth estimate was < -0.25. In the case of NTV, the growth estimate is reported as < -0.25. With RKSPAVSRPVLTDARSIGIP the growth estimate was < -0.25. LMD gave a growth estimate of -0.243. With PTYASNIS the growth estimate was < -0.25. For CIGPEAPGYFNLGAMAPVHS, the growth estimate was < -0.25. With CWLTG the growth estimate was < -0.25. In the case of HPNAYHSVINHRIASFSTCA, the growth estimate is reported as < -0.25. GQDGSSPDEVAEVIAPLIPV was tested, and the growth estimate was < -0.25. With PSCVFISAFRFTGSCSSLPE the growth estimate was < -0.25. In the case of WNAGRAIIDVTYACYFLSAP, the growth estimate is reported as < -0.25. For QMRKGYKGVL, the growth estimate was < -0.25. With RPLR the growth estimate was < -0.25. For LRFAYRRGRAIMNHL, the growth estimate was < -0.25. In the case of YRISRADCDESAVYNGLYQR, the growth estimate is reported as < -0.25. With GNCDAHQA the growth estimate was < -0.25. With FGARGVGVNVTLGIRLLLRR the growth estimate was < -0.25. With LAIRYVDRKTRDKPLWLNLR the growth estimate was < -0.25. GANPVGRF was tested, and the growth estimate was < -0.25. SVNDLHR was tested, and the growth estimate was -0.245. For TQRRMWYWMDEICRSDAARS, the growth estimate was < -0.25. In the case of LRPFLRRRGRIRNPFFDPVS, the growth estimate is reported as < -0.25. With RRVGFAPGVAGVRFLGCDQK the growth estimate was < -0.25. For WPLRVAKARTMKHSCKISRR, the growth estimate was < -0.25. PSRA was tested, and the growth estimate was < -0.25. With HGMRQYPFPTLGQYPSKADR the growth estimate was < -0.25. With TGSRSFASHTV the growth estimate was < -0.25. RSGRSKRGKILQGAWF was tested, and the growth estimate was < -0.25. With VRTQFRKRQRSYCLTPHILP the growth estimate was < -0.25. For GMRCVDFTGLHPGDRVFHSY, the growth estimate was < -0.25. With SSVGKVLGIKRVKARPAVTP the growth estimate was < -0.25. TSAPCLRIRWPGTNLNLAYK was tested, and the growth estimate was < -0.25. For SVEATE, the growth estimate was < -0.25. With SDPNETDDVGTPHRSSET the growth estimate was < -0.25. VVWRTCSHGRVETRRGDVGD was tested, and the growth estimate was < -0.25. LALRFSEGLFGQEV was tested, and the growth estimate was < -0.25. In the case of APKALGGKTVV, the growth estimate is reported as < -0.25. FDLGG was tested, and the growth estimate was < -0.25. For GSIYGRRGILCYCSGLIVES, the growth estimate was < -0.25. MEDDCAAINVAERRFRTGGS was tested, and the growth estimate was < -0.25. With GSKAVGSVSPMIEHVIELAS the growth estimate was < -0.25. DFLRYSATIQR was tested, and the growth estimate was < -0.25. RCCD was tested, and the growth estimate was < -0.25. PSALKYSGAI was tested, and the growth estimate was < -0.25. With EVLL the growth estimate was -0.153. In the case of LRIRKHGCP, the growth estimate is reported as < -0.25. LPEYQAIGYILQGITFLQDE was tested, and the growth estimate was < -0.25. For VVLDLQP, the growth estimate was < -0.25. LTGKGGNQGDGRGR was tested, and the growth estimate was < -0.25. For ANFDLVSWTRGSEVEYRCTC, the growth estimate was < -0.25. SLRPWGGPS was tested, and the growth estimate was < -0.25. VVRLLEWFPARACYGALLAL was tested, and the growth estimate was < -0.25. For GSLGDYTLGR, the growth estimate was < -0.25. For HTCSRQRGNIERSGYTMGGL, the growth estimate was < -0.25. KTG gave a growth estimate of -0.237. With LGSLKHS the growth estimate was < -0.25. In the case of ALLVGIISAGKSLLGL, the growth estimate is reported as < -0.25. HRRHRPGPGDNLTA was tested, and the growth estimate was < -0.25. For LLLHSRLYA, the growth estimate was < -0.25. With GSFLFSVRNRTSFEHLPCPG the growth estimate was < -0.25. With WLEPLGQIQAYSIASTVYGV the growth estimate was < -0.25. For ITHP, the growth estimate was < -0.25. Work on SLTAEDLSVVSR yielded a growth estimate of -0.246. In the case of ATLA, the growth estimate is reported as < -0.25. For AAEQAQFTDARGLDRMLYLT, the growth estimate was < -0.25. In the case of EADNRHETRHRSARFGPDAV, the growth estimate is reported as < -0.25. In the case of RSILLDLTPL, the growth estimate is reported as < -0.25. With WKRPRGFYVFETSKSGPRQT the growth estimate was < -0.25. In the case of DQSDVTI, the growth estimate is reported as < -0.25. With GVGCVYGGRLSYDLVERSGS the growth estimate was < -0.25. Substance CLFMWAVVTVL has a growth estimate of -0.246. CTSTAEQ was tested, and the growth estimate was < -0.25. RSECGVHQLMGIQVAKAAKA was tested, and the growth estimate was < -0.25. For FQPGSRVDGPVVPENRSTAV, the growth estimate was < -0.25. SHLGKIMFFLVSTSGSLSEG was tested, and the growth estimate was < -0.25. With GVASRVWKICPGTRANVPRV the growth estimate was < -0.25. GGVRQSERVSSEASIILTTG was tested, and the growth estimate was < -0.25. With EVRESGAPYVIPRGSR the growth estimate was < -0.25. In the case of GIFDRTRICTDALLGDQRLI, the growth estimate is reported as < -0.25. In the case of ISYFR, the growth estimate is reported as < -0.25. For THQSVTGTAGTAGGP, the growth estimate was < -0.25. DRSRVLGSRQSVMA was tested, and the growth estimate was < -0.25. With LARPSRTGMTSQWKSIKTQC the growth estimate was < -0.25. LVPTPQRDVSPWKAR gave a growth estimate of -0.246. For WFSRGQDNELG, the growth estimate was < -0.25. In the case of LLWSGCGYSPARVEDR, the growth estimate is reported as < -0.25. In the case of QLTVRHP, the growth estimate is reported as < -0.25. LASLIASLPWCRVLAIKPWA was tested, and the growth estimate was < -0.25. LDESQLRGPRDATASGSQQG was tested, and the growth estimate was < -0.25. For AAILPSGWAGSSSEMLRRRT, the growth estimate was < -0.25. IQIPPELSGCDQCLPVALTR was tested, and the growth estimate was < -0.25. In the case of HEADLLCGRDSRYRGLQEQQ, the growth estimate is reported as < -0.25. With WLS the growth estimate was < -0.25. INRSVS was tested, and the growth estimate was < -0.25. In the case of CQLFSVG, the growth estimate is reported as < -0.25. For RFYRYRPERRQRLAGTIVYT, the growth estimate was < -0.25. YNIRGCWSRRAQSWAPSPSK was tested, and the growth estimate was < -0.25. In the case of QCGHAAPVS, the growth estimate is reported as < -0.25. In the case of GPTEQVSPFSPSLVG, the growth estimate is reported as < -0.25. With RTDKPDIKLHRKSLA the growth estimate was < -0.25. For ACILYCEMA, the growth estimate was < -0.25. With RYSVANKRELLAIPDPCDYR the growth estimate was < -0.25. In the case of RKHASNGGSCSYGLDNTMQR, the growth estimate is reported as < -0.25. For SYAPAGNHVPPRQPARSEVN, the growth estimate was < -0.25. In the case of LELEFRCQYPSSLVMTRELW, the growth estimate is reported as < -0.25. ATPDASLTRGYSMLSIVVTQ was tested, and the growth estimate was < -0.25. With GCKG the growth estimate was -0.25. With VLELRWGTVL the growth estimate was < -0.25. RLRREIKRCTETLPSHIARV was tested, and the growth estimate was < -0.25. With DCSVPVTYCESRVAKRTRVA the growth estimate was < -0.25. QRSRTIWGIDIRRAQRTFLC was tested, and the growth estimate was < -0.25. YRPSV was tested, and the growth estimate was < -0.25. In the case of EESESKRLTAPIFRPSNH, the growth estimate is reported as < -0.25. In the case of ISFYIQNKSGPV, the growth estimate is reported as < -0.25. With SDQVVRVRTVELVRVHMIRS the growth estimate was < -0.25. With PSPRVHRNIFSRAPESPTPS the growth estimate was < -0.25. SLFRLCLKRVACRGRPSPTS was tested, and the growth estimate was < -0.25. LEPTKGASIHEAKVQAKLVC was tested, and the growth estimate was < -0.25. PLVAAYFRQFYCKVLCILRG was tested, and the growth estimate was -0.197. NLRGVPLFGVHPVANPAGGR was tested, and the growth estimate was < -0.25. For GRAIS, the growth estimate was < -0.25. NRVFRGP was tested, and the growth estimate was -0.25. TAGGSWTRPIV was tested, and the growth estimate was -0.245. For NFGGVVVRTVAENVMAHLGQ, the growth estimate was < -0.25. In the case of TLRIHPIVSV, the growth estimate is reported as < -0.25. In the case of LDNPHSRKSRL, the growth estimate is reported as < -0.25. FGRQMKIVEDWRIHRQSSQQ showed a growth estimate of -0.246. In the case of KTYFLSFVS, the growth estimate is reported as < -0.25. For LGVSRAGACRDFK, the growth estimate was < -0.25. In the case of FEPSSGA, the growth estimate is reported as < -0.25. With LLVDAYKWLRILDCRKVLVA the growth estimate was < -0.25. For PVGAKLELAYPTEMRSALGS, the growth estimate was < -0.25. In the case of PFGAYCCGLTGSPRRRVRSH, the growth estimate is reported as -0.242. YDATSGRRRDILFAVDSPGM was tested, and the growth estimate was < -0.25. In the case of RYQGVIRAMIVSRCTGWHGI, the growth estimate is reported as < -0.25. For CAAVPPDNVLFFGHRP, the growth estimate was < -0.25.
